Laboratory results reported in PubChem BioAssay AID248 (DTP/NCI, 2004).
The list does not hold the whole screen: it gathers tests that were run many times, whatever their T/C, doses with no T/C, and many T/C values between a quarter and a half above the control. Other doses and runs of a compound stand elsewhere. T/C: endpoint of the treated group in % of that of the vehicle group. Some doses have a count of surviving animals in place of a T/C: the source holds a T/C of zero for them, seemingly a mark for toxic or unscored doses. Some survivor counts are full or nearly so, which does not show that the dose was tolerated: the source hardly ever lists a survival T/C far under the control, and the zero likely stands for such cases as well. Survivors were counted at the toxicity check, usually on the fifth day, unless a day is given; later deaths do not show. Schedules are NCI's codes, taken here to give the interval after Q, in days (D) or hours (H), and the number of doses after X. Some schedules carry Z or #; the key to these is not given. Some structures stand for samples that the source files as different forms (salt, stereo form or complex); doses refer to the form tested. Some entries hold several experiments; the values are given in rising order. For survival time, this PubChem deposit counts one and a half times the control or more as active, and values a quarter to a half above the control carry no call in these data; other NCI protocols may use other cut-offs. Some T/C values carry the count of animals alive at the toxicity check (mostly the fifth day); without a count, all were alive then.

System: L1210 leukemia ip in BDF1 mice, survival T/C
Test: NCI In Vivo Anticancer Drug Screen. Data for tumor model L1210 Leukemia (intraperitoneal) in B6D2F1 (BDF1) mice
Conditions: higher T/C = longer survival
[1] = T/C endpoint: mean survival time, dose: 150.0 mg/kg/injection, schedule: Q01DX001 (ip), vehicle: saline
[2] = T/C endpoint: mean survival time, dose: 300.0 mg/kg/injection, schedule: Q01DX001 (ip), vehicle: saline

For COc1ccc2[nH]c3c(C)c4ccncc4c(C)c3c2c1, the T/C (T/C endpoint: mean survival time, dose: 6.25 mg/kg/injection, schedule: Q01DX009 (ip), vehicle: citric acid) was 146 % of control, the T/C (T/C endpoint: mean survival time, dose: 6.25 mg/kg/injection, schedule: Q01DX009 (ip), vehicle: clinical formulation) was 142 % of control and the T/C (T/C endpoint: mean survival time, dose: 12.0 mg/kg/injection, schedule: Q01DX Z (ip), vehicle: saline) was 129 % of control. The T/C (T/C endpoint: mean survival time, dose: 12.5 mg/kg/injection, schedule: Q01DX009 (ip), vehicle: clinical formulation) was 146 % of control, the T/C (T/C endpoint: mean survival time, dose: 18.75 mg/kg/injection, schedule: Q04DX003 (ip), vehicle: clinical formulation) was 134 % of control and the T/C (T/C endpoint: mean survival time, dose: 18.75 mg/kg/injection, schedule: Q04DX003 (ip), vehicle: lactic acid) was 129 % of control. For the same molecule, the T/C (T/C endpoint: mean survival time, dose: 25.0 mg/kg/injection, schedule: Q01DX009 (ip), vehicle: clinical formulation) was 146 % of control, the T/C (T/C endpoint: mean survival time, dose: 25.0 mg/kg/injection, schedule: Q01DX Z (ip), vehicle: saline) was 117, 132, 155, 160 % of control and the T/C (T/C endpoint: mean survival time, dose: 25.0 mg/kg/injection, schedule: Q01DX Z (oral), vehicle: saline) was 127 % of control. For the same molecule, the T/C (T/C endpoint: mean survival time, dose: 25.0 mg/kg/injection, schedule: Q04DX003 (ip), vehicle: citric acid) was 134 and 142 % of control, the T/C (T/C endpoint: mean survival time, dose: 25.0 mg/kg/injection, schedule: Q04DX003 (ip), vehicle: clinical formulation) was 143 % of control and the T/C (T/C endpoint: mean survival time, dose: 37.5 mg/kg/injection, schedule: Q04DX003 (ip), vehicle: clinical formulation) was 144 % of control. The T/C (T/C endpoint: mean survival time, dose: 37.5 mg/kg/injection, schedule: Q04DX003 (ip), vehicle: water) was 134 % of control, the T/C (T/C endpoint: mean survival time, dose: 40.0 mg/kg/injection, schedule: Q01DX009 (ip), vehicle: Klucel (hydroxypropylcellulose) (HPC)) was 135 % of control and the survivor count (T/C endpoint: mean survival time, dose: 50.0 mg/kg/injection, schedule: Q01DX009 (ip), vehicle: citric acid) was 10 of 10. For the same molecule, the survivor count (T/C endpoint: mean survival time, dose: 50.0 mg/kg/injection, schedule: Q01DX009 (ip), vehicle: clinical formulation) was 10 of 10, the T/C (T/C endpoint: mean survival time, dose: 50.0 mg/kg/injection, schedule: Q01DX Z (ip), vehicle: saline) was 129, 138, 170, 192 % of control and the T/C (T/C endpoint: mean survival time, dose: 50.0 mg/kg/injection, schedule: Q01DX Z (oral), vehicle: saline) was 133 % of control. The T/C (T/C endpoint: mean survival time, dose: 75.0 mg/kg/injection, schedule: Q01DX001 (ip), vehicle: other) was 135 and 139 % of control [9 of 10 alive], the T/C (T/C endpoint: mean survival time, dose: 75.0 mg/kg/injection, schedule: Q01DX001 (oral), vehicle: other) was 130 % of control and the T/C (T/C endpoint: mean survival time, dose: 75.0 mg/kg/injection, schedule: Q01DX Z (ip), vehicle: carboxymethylcellulose (CMC)) was 132 % of control. For the same molecule, the T/C (T/C endpoint: mean survival time, dose: 75.0 mg/kg/injection, schedule: Q01DX Z (ip), vehicle: saline) was 101, 135, 140, 166 % of control, the T/C (T/C endpoint: mean survival time, dose: 75.0 mg/kg/injection, schedule: Q01DX Z (oral), vehicle: saline) was 131 and 131 % of control [4 of 6 alive] and the T/C (T/C endpoint: mean survival time, dose: 75.0 mg/kg/injection, schedule: Q04DX003 (oral), vehicle: other) was 147 % of control. The survivor count (T/C endpoint: mean survival time, dose: 80.0 mg/kg/injection, schedule: Q01DX009 (ip), vehicle: Klucel (hydroxypropylcellulose) (HPC)) was 5 of 6, the survivor count (T/C endpoint: mean survival time, dose: 100.0 mg/kg/injection, schedule: Q01DX009 (ip), vehicle: citric acid) was 2 of 10 and the survivor count (T/C endpoint: mean survival time, dose: 100.0 mg/kg/injection, schedule: Q01DX009 (ip), vehicle: clinical formulation) was 3 of 10. For the same molecule, the survivor count (T/C endpoint: mean survival time, dose: 100.0 mg/kg/injection, schedule: Q04DX003 (ip), vehicle: citric acid) was 9 of 10, the survivor count (T/C endpoint: mean survival time, dose: 150.0 mg/kg/injection, schedule: Q01DX001 (ip), vehicle: other) was 3 of 10 and 4 of 10 and the T/C (T/C endpoint: mean survival time, dose: 150.0 mg/kg/injection, schedule: Q01DX001 (oral), vehicle: other) was 134 and 148 % of control. The T/C (T/C endpoint: mean survival time, dose: 150.0 mg/kg/injection, schedule: Q01DX001 (oral), vehicle: saline) was 128 % of control, the survivor count (T/C endpoint: mean survival time, dose: 150.0 mg/kg/injection, schedule: Q01DX Z (ip), vehicle: carboxymethylcellulose (CMC)) was 6 of 6 and the survivor count (T/C endpoint: mean survival time, dose: 150.0 mg/kg/injection, schedule: Q04DX003 (ip), vehicle: clinical formulation) was 8 of 10. For the same molecule, the survivor count (T/C endpoint: mean survival time, dose: 150.0 mg/kg/injection, schedule: Q04DX003 (ip), vehicle: lactic acid) was 8 of 10, the survivor count (T/C endpoint: mean survival time, dose: 170.0 mg/kg/injection, schedule: Q01DX Z (oral), vehicle: saline) was 6 of 6 and the survivor count (T/C endpoint: mean survival time, dose: 200.0 mg/kg/injection, schedule: Q01DX009 (ip), vehicle: citric acid) was 0 of 10. The survivor count (T/C endpoint: mean survival time, dose: 200.0 mg/kg/injection, schedule: Q01DX009 (ip), vehicle: clinical formulation) was 0 of 10, the survivor count (T/C endpoint: mean survival time, dose: 200.0 mg/kg/injection, schedule: Q04DX003 (ip), vehicle: citric acid) was 4 of 10 and the survivor count (T/C endpoint: mean survival time, dose: 200.0 mg/kg/injection, schedule: Q04DX003 (ip), vehicle: clinical formulation) was 7 of 10. The T/C (T/C endpoint: mean survival time, dose: 225.0 mg/kg/injection, schedule: Q01DX001 (ip), vehicle: saline) was 131 % of control, the survivor count (T/C endpoint: mean survival time, dose: 255.0 mg/kg/injection, schedule: Q01DX Z (ip), vehicle: saline) was 6 of 7 and the T/C (T/C endpoint: mean survival time, dose: 300.0 mg/kg/injection, schedule: Q01DX001 (oral), vehicle: saline) was 138 % of control. The T/C (T/C endpoint: mean survival time, dose: 340.0 mg/kg/injection, schedule: Q01DX001 (ip), vehicle: saline) was 143 % of control, the survivor count (T/C endpoint: mean survival time, dose: 385.0 mg/kg/injection, schedule: Q01DX Z (ip), vehicle: saline) was 7 of 7 and the survivor count (T/C endpoint: mean survival time, dose: 575.0 mg/kg/injection, schedule: Q01DX Z (ip), vehicle: saline) was 4 of 7. For the same molecule, the T/C (T/C endpoint: mean survival time, dose: 600.0 mg/kg/injection, schedule: Q01DX001 (oral), vehicle: saline) was 139 % of control, the T/C (T/C endpoint: median survival time, dose: 4.0 mg/kg/injection, schedule: Q01DX009 (ip), vehicle: water) was 133 % of control and the T/C (T/C endpoint: median survival time, dose: 8.0 mg/kg/injection, schedule: Q01DX009 (ip), vehicle: other) was 133 % of control. The T/C (T/C endpoint: median survival time, dose: 8.0 mg/kg/injection, schedule: Q01DX009 (ip), vehicle: water) was 138 % of control, the T/C (T/C endpoint: median survival time, dose: 16.0 mg/kg/injection, schedule: Q01DX009 (sc), vehicle: water) was 133 % of control and the T/C (T/C endpoint: median survival time, dose: 16.0 mg/kg/injection, schedule: Q03HX008 (sc), vehicle: water) was 138 % of control. The T/C (T/C endpoint: median survival time, dose: 32.0 mg/kg/injection, schedule: Q01DX001 (sc), vehicle: water) was 133 % of control, the survivor count (T/C endpoint: median survival time, dose: 32.0 mg/kg/injection, schedule: Q03HX008 (oral), vehicle: other) was 2 of 10 and the survivor count (T/C endpoint: median survival time, dose: 64.0 mg/kg/injection, schedule: Q01DX009 (ip), vehicle: other) was 9 of 10. The survivor count (T/C endpoint: median survival time, dose: 64.0 mg/kg/injection, schedule: Q01DX009 (ip), vehicle: water) was 9 of 10, the survivor count (T/C endpoint: median survival time, dose: 64.0 mg/kg/injection, schedule: Q01DX009 (oral), vehicle: other) was 9 of 10 and the survivor count (T/C endpoint: median survival time, dose: 64.0 mg/kg/injection, schedule: Q03HX008 (oral), vehicle: other) was 7 of 10. For the same molecule, the survivor count (T/C endpoint: median survival time, dose: 64.0 mg/kg/injection, schedule: Q03HX008 (sc), vehicle: water) was 7 of 10, the T/C (T/C endpoint: median survival time, dose: 128.0 mg/kg/injection, schedule: Q01DX001 (sc), vehicle: water) was 127 % of control [9 of 10 alive] and the T/C (T/C endpoint: median survival time, dose: 256.0 mg/kg/injection, schedule: Q01DX001 (oral), vehicle: other) was 127 % of control [8 of 10 alive].
With O=c1c(Cl)c(C(Cl)(Cl)Cl)[nH]c2ccc([N+](=O)[O-])cc12 the survivor count (T/C endpoint: mean survival time, dose: 100.0 mg/kg/injection, schedule: Q01DX001 (ip), vehicle: saline with Tween-80) was 2 of 6.
CS(=O)(=O)OCCN(CCOS(C)(=O)=O)c1ccc(C=O)cc1 was tested, and the T/C (T/C endpoint: mean survival time, dose: 7.5 mg/kg/injection, schedule: Q01DX009 (ip), vehicle: saline) was 132 % of control, the T/C (T/C endpoint: mean survival time, dose: 15.0 mg/kg/injection, schedule: Q01DX009 (ip), vehicle: saline) was 128 and 136 % of control and the T/C (T/C endpoint: mean survival time, dose: 30.0 mg/kg/injection, schedule: Q01DX009 (ip), vehicle: saline) was 135 % of control. The T/C (T/C endpoint: mean survival time, dose: 50.0 mg/kg/injection, schedule: Q01DX001 (ip), vehicle: saline) was 140 % of control, the T/C (T/C endpoint: mean survival time, dose: 60.0 mg/kg/injection, schedule: Q01DX009 (ip), vehicle: saline) was 130 % of control and the T/C (T/C endpoint: mean survival time, dose: 75.0 mg/kg/injection, schedule: Q01DX001 (ip), vehicle: saline) was 134 % of control. For the same molecule, the T/C [1] was 131 % of control, the survivor count [1] was 2 of 6 and the survivor count (T/C endpoint: mean survival time, dose: 150.0 mg/kg/injection, schedule: Q01DX009 (ip), vehicle: saline) was 6 of 6. For the same molecule, the survivor count (T/C endpoint: mean survival time, dose: 225.0 mg/kg/injection, schedule: Q01DX009 (ip), vehicle: saline) was 5 of 6, the T/C [2] was 131 % of control and the survivor count [2] was 0 of 6.
